Laboratory results taken from the supplement of paper PMC8728848.
The other results are listed elsewhere or left out.

Assays:
Experiment in all cases: glycan array binding signal (z-score within array); higher = stronger binding
Conditions in all cases: glycan notation: IUPAC condensed, linker removed
[1] = target: Fuc(a1-2)[Gal(a1-3)]Gal(b1-4)GlcNAc(b1-2)Man(a1-3)[Fuc(a1-2)[Gal(a1-3)]Gal(b1-4)GlcNAc(b1-2)Man(a1-6)]Man(b1-4)GlcNAc(b1-4)[Fuc(a1-6)]GlcNAc
Outline: (§1)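 Glycan array binding is given as a within-array Z-score, which can be read as non-binding when negative. The arrays, 3228 of them, came from the Consortium for Functional Glycomics database and were retained only where the protein sequence was available. Z-scores were averaged across arrays of the same protein sequence at different concentrations or buffers and across linkers.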

[2] = target: Fuc(a1-2)[Gal(a1-3)]Gal(b1-4)GlcNAc(b1-3)GalNAc
Outline: as §1

[3] = target: Fuc(a1-2)[Gal(a1-3)]Gal(b1-4)GlcNAc(b1-3)[Fuc(a1-2)[Gal(a1-3)]Gal(b1-4)GlcNAc(b1-6)]GalNAc
Outline: as §1

[4] = target: Fuc(a1-2)[Gal(a1-3)]Gal(b1-4)GlcNAc(b1-6)GalNAc
Outline: as §1

[5] = target: Fuc(a1-2)[Gal(a1-3)]Gal(b1-4)[Fuc(a1-3)]Glc
Outline: as §1

[6] = target: Fuc(a1-2)[Gal(a1-3)]Gal(b1-4)[Fuc(a1-3)]GlcNAc
Outline: as §1

[7] = target: Fuc(a1-2)[Gal(a1-3)]Gal(b1-4)[Fuc(a1-3)]GlcNAc(b1-3)GalNAc
Outline: as §1

[8] = target: Fuc(a1-2)[Gal(a1-4)]Gal(b1-4)GlcNAc
Outline: as §1

[9] = target: Fuc(a1-2)[GalNAc(a1-3)]Gal
Outline: as §1

[10] = target: Fuc(a1-2)[GalNAc(a1-3)]Gal(b1-3)GalNAc(a1-3)[Fuc(a1-2)]Gal(b1-4)GlcNAc
Outline: as §1

[11] = target: Fuc(a1-2)[GalNAc(a1-3)]Gal(b1-3)GalNAc(b1-3)Gal(a1-4)Gal(b1-4)Glc
Outline: as §1

[12] = target: Fuc(a1-2)[GalNAc(a1-3)]Gal(b1-3)GlcNAc
Outline: as §1

[13] = target: Fuc(a1-2)[GalNAc(a1-3)]Gal(b1-3)GlcNAc(b1-2)Man(a1-3)[Fuc(a1-2)[GalNAc(a1-3)]Gal(b1-3)GlcNAc(b1-2)Man(a1-6)]Man(b1-4)GlcNAc(b1-4)GlcNAc
Outline: as §1

[14] = target: Fuc(a1-2)[GalNAc(a1-3)]Gal(b1-3)GlcNAc(b1-2)Man(a1-3)[Fuc(a1-2)[GalNAc(a1-3)]Gal(b1-3)GlcNAc(b1-2)Man(a1-6)]Man(b1-4)GlcNAc(b1-4)[Fuc(a1-6)]GlcNAc
Outline: as §1

[15] = target: Fuc(a1-2)[GalNAc(a1-3)]Gal(b1-3)GlcNAc(b1-3)GalNAc
Outline: as §1

[16] = target: Fuc(a1-2)[GalNAc(a1-3)]Gal(b1-3)GlcNAc(b1-6)GalNAc
Outline: as §1

[17] = target: Fuc(a1-2)[GalNAc(a1-3)]Gal(b1-4)Glc
Outline: as §1

[18] = target: Fuc(a1-2)[GalNAc(a1-3)]Gal(b1-4)GlcNAc
Outline: as §1

[19] = target: Fuc(a1-2)[GalNAc(a1-3)]Gal(b1-4)GlcNAc(b1-2)Man
Outline: as §1

[20] = target: Fuc(a1-2)[GalNAc(a1-3)]Gal(b1-4)GlcNAc(b1-2)Man(a1-3)[Fuc(a1-2)[GalNAc(a1-3)]Gal(b1-4)GlcNAc(b1-2)Man(a1-6)]Man(b1-4)GlcNAc(b1-4)GlcNAc
Outline: as §1

[21] = target: Fuc(a1-2)[GalNAc(a1-3)]Gal(b1-4)GlcNAc(b1-2)Man(a1-3)[Fuc(a1-2)[GalNAc(a1-3)]Gal(b1-4)GlcNAc(b1-2)Man(a1-6)]Man(b1-4)GlcNAc(b1-4)[Fuc(a1-6)]GlcNAc
Outline: as §1

[22] = target: Fuc(a1-2)[GalNAc(a1-3)]Gal(b1-4)GlcNAc(b1-3)Gal(b1-4)GlcNAc
Outline: as §1

[23] = target: Fuc(a1-2)[GalNAc(a1-3)]Gal(b1-4)GlcNAc(b1-3)Gal(b1-4)GlcNAc(b1-3)Gal(b1-4)GlcNAc
Outline: as §1

[24] = target: Fuc(a1-2)[GalNAc(a1-3)]Gal(b1-4)GlcNAc(b1-3)GalNAc
Outline: as §1

[25] = target: Fuc(a1-2)[GalNAc(a1-3)]Gal(b1-4)GlcNAc(b1-3)[Fuc(a1-2)[GalNAc(a1-3)]Gal(b1-4)GlcNAc(b1-6)]GalNAc
Outline: as §1

[26] = target: Fuc(a1-2)[GalNAc(a1-3)]Gal(b1-4)GlcNAc(b1-6)GalNAc
Outline: as §1

[27] = target: Fuc(a1-2)[GalNAc(a1-3)]Gal(b1-4)[Fuc(a1-3)]GlcNAc
Outline: as §1

[28] = target: Fuc(a1-2)[GalNAc(a1-3)]Gal(b1-4)[Fuc(a1-3)]GlcNAc(b1-3)GalNAc
Outline: as §1

[29] = target: Fuc(a1-2)[GalNAc(a1-4)]Gal(b1-4)GlcNAc
Outline: as §1

[30] = target: Fuc(a1-2)[GalNAc(b1-3)]Gal
Outline: as §1

[31] = target: Fuc(a1-3)GlcNAc
Outline: as §1

[32] = target: Fuc(a1-3)[Gal(b1-4)]Glc6S
Outline: as §1

[33] = target: Fuc(a1-3)[Gal(b1-4)]GlcNAc
Outline: as §1

[34] = target: Fuc(a1-3)[Gal(b1-4)]GlcNAc(b1-2)Man
Outline: as §1

[35] = target: Fuc(a1-3)[Gal(b1-4)]GlcNAc(b1-2)Man(a1-3)[Fuc(a1-3)[Gal(b1-4)]GlcNAc(b1-2)Man(a1-6)]Man(b1-4)GlcNAc(b1-4)GlcNAc
Outline: as §1

[36] = target: Fuc(a1-3)[Gal(b1-4)]GlcNAc(b1-2)Man(a1-3)[Fuc(a1-3)[Gal(b1-4)]GlcNAc(b1-2)Man(a1-6)]Man(b1-4)GlcNAc(b1-4)[Fuc(a1-6)]GlcNAc
Outline: as §1

[37] = target: Fuc(a1-3)[Gal(b1-4)]GlcNAc(b1-3)Gal(b1-3)[Fuc(a1-4)]GlcNAc
Outline: as §1

[38] = target: Fuc(a1-3)[Gal(b1-4)]GlcNAc(b1-3)Gal(b1-4)[Fuc(a1-3)]GlcNAc
Outline: as §1

[39] = target: Fuc(a1-3)[Gal(b1-4)]GlcNAc(b1-3)Gal(b1-4)[Fuc(a1-3)]GlcNAc(b1-3)Gal(b1-4)[Fuc(a1-3)]GlcNAc
Outline: as §1

[40] = target: Fuc(a1-3)[Gal(b1-4)]GlcNAc(b1-3)GalNAc
Outline: as §1

[41] = target: Fuc(a1-3)[Gal(b1-4)]GlcNAc(b1-6)GalNAc
Outline: as §1

[42] = target: Fuc(a1-3)[Gal(b1-4)]GlcNAc(b1-6)[Gal(b1-3)GlcNAc(b1-3)]Gal(b1-4)Glc
Outline: as §1

[43] = target: Fuc(a1-3)[Gal(b1-4)]GlcNAc6S
Outline: as §1

[44] = target: Fuc(a1-3)[Gal3S(b1-4)]Glc
Outline: as §1

[45] = target: Fuc(a1-3)[Gal3S(b1-4)]GlcNAc
Outline: as §1

[46] = target: Fuc(a1-3)[Gal3S(b1-4)]GlcNAc6S
Outline: as §1

[47] = target: Fuc(a1-3)[GalNAc(b1-4)]GlcNAc
Outline: as §1

[48] = target: Fuc(a1-3)[GalNAc(b1-4)]GlcNAc6S
Outline: as §1

[49] = target: Fuc(a1-4)GlcNAc
Outline: as §1

[50] = target: Fuc(b1-3)GlcNAc
Outline: as §1

[51] = target: Gal(a1-2)Gal
Outline: as §1

[52] = target: Gal(a1-3)Gal
Outline: as §1

[53] = target: Gal(a1-3)Gal(b1-3)GlcNAc
Outline: as §1

[54] = target: Gal(a1-3)Gal(b1-3)GlcNAc(b1-2)Man
Outline: as §1

[55] = target: Gal(a1-3)Gal(b1-3)GlcNAc(b1-2)Man(a1-3)[Gal(a1-3)Gal(b1-3)GlcNAc(b1-2)Man(a1-6)]Man(b1-4)GlcNAc(b1-4)GlcNAc
Outline: as §1

[56] = target: Gal(a1-3)Gal(b1-3)GlcNAc(b1-3)GalNAc
Outline: as §1

[57] = target: Gal(a1-3)Gal(b1-3)GlcNAc(b1-6)GalNAc
Outline: as §1

[58] = target: Gal(a1-3)Gal(b1-3)[Fuc(a1-4)]GlcNAc(b1-2)Man(a1-3)[Gal(a1-3)Gal(b1-3)[Fuc(a1-4)]GlcNAc(b1-2)Man(a1-6)]Man(b1-4)GlcNAc(b1-4)GlcNAc
Outline: as §1

[59] = target: Gal(a1-3)Gal(b1-4)Glc
Outline: as §1

[60] = target: Gal(a1-3)Gal(b1-4)GlcNAc
Outline: as §1

B1: Mermaid2 (Stilbonema majum) (protein)
chain: MGSSHHHHHHSSGLVPRGSHMAASGWLRSPQGTVVKLYRRSLSWSKADEFCKDVDGRLVVDRTADMHLFLIKNVLKEKKSRVWVGLRRTAPHSRTWIWSDGTRQNEDDLNTNLWLRDEPNDAAGEEECALFMYSPWEKAWGLNDYLCRGGCRSYQFICEKGIR
glycan array binding signal (z-score) [1]: -0.468
glycan array binding signal (z-score) [2]: -0.602
glycan array binding signal (z-score) [3]: -0.477
glycan array binding signal (z-score) [4]: 0.562
glycan array binding signal (z-score) [5]: -0.396
glycan array binding signal (z-score) [6]: -0.315
glycan array binding signal (z-score) [7]: -0.328
glycan array binding signal (z-score) [8]: 2.44
glycan array binding signal (z-score) [9]: -0.395
glycan array binding signal (z-score) [10]: -0.693
glycan array binding signal (z-score) [11]: -0.024
glycan array binding signal (z-score) [12]: -0.292
glycan array binding signal (z-score) [13]: -1.07
glycan array binding signal (z-score) [14]: -0.504
glycan array binding signal (z-score) [15]: 0.751
glycan array binding signal (z-score) [16]: -0.709
glycan array binding signal (z-score) [17]: -0.627
glycan array binding signal (z-score) [18]: -0.408
glycan array binding signal (z-score) [19]: -0.465
glycan array binding signal (z-score) [20]: -0.516
glycan array binding signal (z-score) [21]: 0.066
glycan array binding signal (z-score) [22]: -0.302
glycan array binding signal (z-score) [23]: -0.257
glycan array binding signal (z-score) [24]: -0.433
glycan array binding signal (z-score) [25]: 0.024
glycan array binding signal (z-score) [26]: -0.72
glycan array binding signal (z-score) [27]: 0.262
glycan array binding signal (z-score) [28]: -0.713
glycan array binding signal (z-score) [29]: 0.06
glycan array binding signal (z-score) [30]: -0.551
glycan array binding signal (z-score) [31]: -0.031
glycan array binding signal (z-score) [32]: 1.56
glycan array binding signal (z-score) [33]: 0.157
glycan array binding signal (z-score) [34]: -0.471
glycan array binding signal (z-score) [35]: -0.485
glycan array binding signal (z-score) [36]: -0.867
glycan array binding signal (z-score) [37]: -0.144
glycan array binding signal (z-score) [38]: 1.68
glycan array binding signal (z-score) [39]: -0.459
glycan array binding signal (z-score) [40]: -0.024
glycan array binding signal (z-score) [41]: -0.123
glycan array binding signal (z-score) [42]: -0.797
glycan array binding signal (z-score) [43]: 1.8
glycan array binding signal (z-score) [44]: -0.681
glycan array binding signal (z-score) [45]: 0.273
glycan array binding signal (z-score) [46]: -0.19
glycan array binding signal (z-score) [47]: 0.87
glycan array binding signal (z-score) [48]: -0.66
glycan array binding signal (z-score) [49]: 1.95
glycan array binding signal (z-score) [50]: -0.713
glycan array binding signal (z-score) [51]: 1.42
glycan array binding signal (z-score) [52]: -0.664
glycan array binding signal (z-score) [53]: -0.531
glycan array binding signal (z-score) [54]: -0.306
glycan array binding signal (z-score) [55]: 0.095
glycan array binding signal (z-score) [56]: 0.342
glycan array binding signal (z-score) [57]: 0.012
glycan array binding signal (z-score) [58]: 1.53
glycan array binding signal (z-score) [59]: -0.239
glycan array binding signal (z-score) [60]: -0.361
